Some of the results follow. No stated cut-off is given here; in the data, active = 150% or more and inactive = the rest. Most values come without repeats; read them as rough.
The compounds below were run on Staphylococcus aureus JE2-lux inside RAW 264.7 macrophages (assay: intracellular bacterial bioluminescence relative to DMSO vehicle; higher = higher intracellular bacterial metabolic activity). Conditions: 10 µM; treatment time 4 h; gentamicin 50 µg/ml.

SMILES | intracellular bacterial bioluminescence
COc1ccc(CNC(=O)CSc2nccnc2N2CCSCC2)cc1 | inactive: 67.7%
COc1cc(C(=O)Nc2cccc3ccccc23)c(-n2cnnn2)cc1OC | inactive: 104%
COc1ccc(CCNC(=O)Cn2c(-c3cccs3)cc3cccnc32)cc1OC | inactive: 52.8%
Cc1nc2nc(NC(=O)Cn3nnc4ccccc43)ccc2c(C)c1C | inactive: 16.3%
Cc1ccc(/N=C2/NC(=O)/C(=C/c3ccccc3)S2)cc1 | inactive: 75.7%
C=CCOC(=O)C1=C(C)Nc2c(c(=O)n(C)c(=O)n2C)C1c1cccnc1 (stereo unspecified) | inactive: 90.8%
O=C(O)CCC(=O)NCCn1c(-c2ccccc2)cs/c1=N/c1ccccc1 | inactive: 121%
COc1cc2cc(C#N)c(SCC(=O)NC3CCCC3)nc2cc1OC | inactive: 87.4%
Cc1cc(C)nc(NS(=O)(=O)c2ccc(NC(=O)c3ccc(Cl)cc3)cc2)n1 | active: 163%
CCC1Sc2ccc(S(=O)(=O)CCC(=O)NC(C)(C)C)cc2NC1=O (stereo unspecified) | inactive: 105%
O=C(NCc1ccc2[nH]c3c(c2c1)CCCC3)Nc1ccc(Cl)cc1 | inactive: 77.9%
NC(=O)c1c(NC(=O)/C=C/c2ccc(Cl)cc2Cl)sc2c1CCCC2 | inactive: 95.7%
Cc1nc(N2CCCC2)c2c(C)c(C(=O)N3CCOCC3)sc2n1 | inactive: 116%
Clc1cccc2nc3n(c12)CCN(C1CCCCC1)C3 | inactive: 101%
CN(Cc1cc(O)nc2ccccc12)S(=O)(=O)c1ccc2c(c1)CCC(=O)N2 | inactive: 81.2%
COCCNC(=O)Cn1nc2c3c(C)c(C)sc3ncn2c1=O | inactive: 114%
O=C1Nc2ccc(Br)cc2/C1=N/NC(=O)c1ccccc1NC(=O)c1ccccc1 | inactive: 68.1%
Cc1nn2c(-n3cccc3)c(-c3ccc(F)cc3)nc2s1 | inactive: 105%
O=C(Nc1cc2c3c(c1)CCC(=O)N3CCC2)c1cccc(C(F)(F)F)c1 | inactive: 113%
CN(C)CCn1c2c(c(SCC(=O)Nc3ccc([N+](=O)[O-])cc3)nc1=O)CCC2 | inactive: 15.6%
COc1ccc(-c2nc3c(c(=O)[nH]2)Cc2cc(Cl)ccc2O3)c(OC)c1 | inactive: 93.3%
CCOCCCNC(=O)c1sc2nc(C)nc(N3CCCC3)c2c1C | inactive: 111%
CCn1c(C)cc2cc(NC(=O)c3c(-c4ccncc4)noc3C)ccc21 | inactive: 103%

3 of these compounds, reformatted:
Cc1ccc(/N=C2/NC(=O)/C(=C/c3ccccc3)S2)cc1
  intracellular bacterial bioluminescence: inactive: 75.7%
Cc1cc(C)nc(NS(=O)(=O)c2ccc(NC(=O)c3ccc(Cl)cc3)cc2)n1
  intracellular bacterial bioluminescence: active: 163%
Cc1nc(N2CCCC2)c2c(C)c(C(=O)N3CCOCC3)sc2n1
  intracellular bacterial bioluminescence: inactive: 116%

(cont.)

SMILES | intracellular bacterial bioluminescence
COc1ccc(CCC(=O)Nc2ccc3c(c2)C(=O)Nc2ccccc2O3)cc1 | inactive: 21%
O=C(CN1C(=O)c2ccccc2C1=O)OCC(=O)c1ccc(-c2ccccc2)cc1 | inactive: 123%
CC(C)NC(=O)CN1CCN(c2ncc(NC(=O)c3ccc(F)cc3)cc2C(=O)O)CC1 | inactive: 87.4%
COc1ccc(NC(=O)CSc2nc3ccccc3c(=O)[nH]2)c(OC)c1 | inactive: 96.8%
CCOC(=O)c1sc(NC(=O)CSc2nc(=O)n3ccc(C)cc3n2)c(C(=O)OCC)c1C | inactive: 28.8%
C=CCOc1ccccc1NC(=O)c1cnc(N2CCOCC2)nc1 | inactive: 118%
CC(Cc1ccco1)NC(=O)Cn1cccc1-c1nc(-c2ccccc2)cs1 (stereo unspecified) | inactive: 39.9%
COc1ccccc1CNC(=O)c1cc2c(=O)n3ccccc3nc2n1C | inactive: 111%
CCOC(=O)CSc1nc2c([nH]1)c(=O)n(C)c(=O)n2C | inactive: 93.8%
COc1ccc(NC(=O)c2ccc(-n3cnc4c(sc5nc(C)cc(C)c54)c3=O)cc2)c(OC)c1 | inactive: 99.9%
Cc1nc2cc(NC(=O)Nc3ccc(Cl)cc3)ccc2n1-c1ccccc1 | inactive: 102%
COc1cccc(Nc2nc(NC3CCN(Cc4ccccc4)CC3)nc3c2cnn3C)c1 | inactive: 81.4%
CCC(C)NC(=O)c1c(N)n(/N=C/c2cccc(O)c2)c2nc3ccccc3nc12 (stereo unspecified) | inactive: 108%
Nc1c(C(=O)NCc2ccco2)nnn1Cc1cccc(Cl)c1 | inactive: 51.4%
COc1ccc(C(=O)CSc2nc(=O)[nH]c3c2CCCC3)cc1 | inactive: 129%
CCOC(=O)c1nc(N2CCOCC2)c2c(C)c(C)n(-c3ccccc3)c2n1 | inactive: 51%
CCSc1nnc(NC(=O)CCn2c(=O)oc3ccccc32)s1 | inactive: 47.8%
COc1ccc(-n2nc3c(c2NC(=O)C2(c4ccc(Cl)cc4)CCCC2)CS(=O)C3)cc1 (stereo unspecified) | inactive: 93.9%
Cc1ccccc1OCCCC(=O)Nc1sc2c(c1C#N)CCC(C)C2 (stereo unspecified) | inactive: 94.9%
COc1ccc(NC(=O)Cn2cnc3c(cnn3-c3ccc(F)cc3)c2=O)cc1OC | inactive: 96.1%
Cc1ccc2c(c1)C(=O)OC(C(=O)Nc1cc(C)on1)C2 (stereo unspecified) | inactive: 61.8%
COc1ccc(C(NC(=O)c2cnc(C(C)(C)C)nc2)c2ccncc2)cc1 (stereo unspecified) | inactive: 89.2%
CC1CCc2c(sc3ncn(C4CCN(C(=O)c5ccco5)CC4)c(=O)c23)C1 (stereo unspecified) | inactive: 59.2%

From the supplement of paper PMC12578635
